# Laboratory results reported in PubChem BioAssay AID1347423 (Functional Genomics Laboratory (NCATS/FGL), 2020).
# About 210 (0.4%) of roughly 52,000 sequences were called active.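 Rule for the calls: active = gene whose silencing raises cell survival under the drug, median off-target-corrected z-score across its silencing RNAs 2 or more; inactive = the rest.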 The list shows a part of the results.
# Assay: Resistance to Poly (ADP-Ribose) Polymerase inhibitor: Gene Identification via Genome-wide siRNA Screen
# Conditions: mouse BRCA2 R2336H ES cells, olaparib, CellTiter-Glo viability; stronger effect = higher value
# Summary of the method: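 Genome-wide siRNA screen (3 siRNAs/gene, 20 nM) in mouse ES cells carrying hypomorphic BRCA2 R2336H; olaparib 500 nM added 48 h post-transfection, CellTiter-Glo viability 72 h later. Normalized to plate-median negative control; MAD z-scores, gene median, seed-adjusted.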
row,Sequence,z-score
1,GGCUGUUAGAGGAAGAGAUTT against Ube3b,inactive: -1.32
2,GCAGAAUGGUAAAUCCGAUTT against Mc5r,inactive: 1.96
3,GGAAAUAACAGGCUUUUUGTT against Egfr,inactive: 0.165
4,GGUAGUGUUCAUUGAGGAATT against Oas1d,inactive: -1.43
5,GGUUACAUUGCUCUCGUGCTT against V1re11,inactive: -0.262
6,GGAUUCACACAGAGGUAAATT against 1700025J14Rik,inactive: -1.34
7,GGCUAUUCUCAAGGUGUUATT against Olfr568,inactive: -0.478
8,GCUAGAUGCUCGGAUCCAGTT against Ei24,inactive: 0.313
9,GGUGAUGCACUAUUAAGAATT against D230016N13Rik,inactive: 0.69
10,CGUUUGAUACCAAAGAUUUTT against Onecut3,inactive: 1.28
11,GGUGAUAACUCCGGGCCAATT against ORF9,inactive: -1.92
12,CCUAAAAGGGUUUUUGCUUTT against H2afy2,inactive: 2.25
13,CCCUUUUUAAUCGUCCCACTT against D0H4S114,inactive: -0.713
14,GAGUACCAGCUGUUGUUCATT against Olfr392,inactive: -0.745
15,GGCACAAGUCUCCUUGUAATT against Sybl1,inactive: 0.538
16,CCAAGCCAAGCAAUCUUGATT against Chat,inactive: 1.39
17,GGAAAAGUUGAUUUCUCUATT against Olfr453,inactive: -0.486
18,GGAAUUCUGCUUCAUGGAUTT against Cdc42ep4,inactive: 0.343
19,GGUGCAAAGCACAGAUAUATT against 1110003E08Rik,inactive: 2.14
20,GGAAUGCUUUUGAGAUUCATT against E130307J04Rik,inactive: 0.1
21,CCCUAAGUUCUCGUUUCUGTT against Cherp,inactive: 1.57
22,CCAAAAAUGAAAUCACUGATT against Krt2-6g,inactive: 0.754
23,GCAUGCUGACACUUACUUUTT against Olfr878,inactive: 1.3
24,GCUGAGCUCAGAACAUCUATT against Muc5b,inactive: 0.625
25,GGACUUUCUCAAGGACAGATT against Wnt5a,inactive: -2.32
26,GGCAAAGCUUAUGGAAAGCTT against 9130221H12Rik,inactive: 0.617

row,Sequence,z-score
1,GGUGUGCUAGAAGAUAUUATT against Actr10,inactive: -0.731
2,GGACUCCCUGGAUUUCAGATT against Rapgef3,inactive: 0.836
3,GCCAUAUGCUAUCAAGAUGTT against AW539964,inactive: 0.712
4,GGUCCUGCGCUUAUUUGAGTT against Pah,inactive: -1.61
5,CGCGGAGGUCUCUCUUAUUTT against Tesp1,inactive: 1.04
6,GGGUGCAUUUGAGAAGAUCTT against Cast1,inactive: 1.11
7,GGAUGACAUGAGCAUCAGUTT against Fdft1,inactive: 1.27
8,GGACUUCAGUGAGGAUCAATT against Sgne1,inactive: 0.389
9,CGAUUCCUUUGUAACGAAATT against Aldh5a1,inactive: -0.197
10,GGAAUGUGCCUAAGUUUGGTT against 1110021H02Rik,inactive: -2.55
11,CCAGAAGCCAUUAACUAUGTT against Lck,inactive: 0.224
12,GGUUGUGGAAGCAAGUAUGTT against C730048C13Rik,inactive: 1.29
13,GCUUUCUUACCAAGAGUCATT against A030011M19,inactive: -0.26
14,GCAUGGUAUUAGGUUUUUUTT against Rab10,inactive: 0.926
15,GGUGGAUCCUGACAUGUUCTT against Wdr40b,inactive: -1.71
16,CCUGUGGUGUUAAUAAGAUTT against 4732471D19Rik,inactive: -0.138
17,GGCUUGUCCACUGAACCUUTT against Nol1,inactive: -2.29
18,GGAUCAGAAAUCAUCAAGCTT against Tsg-5,inactive: 0.469
19,GGUUAAAGAAGCCAUGAAATT against Olfr480,inactive: 1.26
20,GGUUUUUCUCUUGUGAUUUTT against Vegfc,inactive: 2.39
21,CCGUGGAAACAGUCCUGAATT against 4921532K09Rik,inactive: -0.827
22,GGAGCGAUUCACAAAUUACTT against 4932414K18Rik,inactive: 1.8
23,GGAUGAGAAGAAAGAAGAUTT against Ars2,inactive: -0.215
24,GGCCUUUACGUCUUCCUAGTT against Zdhhc12,inactive: -0.603
25,CGUUUGCACUACUCGUAACTT against Nrbf2,inactive: 0.709
26,CGAGAUCAGGCUACGUCGATT against BC025575,inactive: 0.422

# Random excerpt: 5 entries already listed, in no set order.
row,Sequence,z-score
14,GAGUACCAGCUGUUGUUCATT against Olfr392,inactive: -0.745
4,GGUAGUGUUCAUUGAGGAATT against Oas1d,inactive: -1.43
24,GCUGAGCUCAGAACAUCUATT against Muc5b,inactive: 0.625
12,CCUAAAAGGGUUUUUGCUUTT against H2afy2,inactive: 2.25
10,CGUUUGAUACCAAAGAUUUTT against Onecut3,inactive: 1.28

# Later entries

row,Sequence,z-score
1,GGAUGAAAGGCGGAUACUUTT against Etv4,inactive: -1.73
2,GGAUGUGAUCCUUUUUUGATT against Cml2,inactive: -0.31
3,GGGACUUAAGGUUAGACACTT against E330018D03Rik,inactive: 0.74
4,GCACAUCAGUACAUUUCACTT against Centg2,inactive: -0.488
5,GGGCUUCAUCAACUAUCUUTT against Spint1,inactive: -0.516
6,GAGAGCGGAGAGAUCAAAGTT against Iltifb,inactive: 1.62
7,GGUGCUUCCAGAAUCUUUATT against Epha5,inactive: -0.9
8,CCUGGUGAUUAGUACUUUATT against Grpel1,inactive: -0.612
9,GGACCAAGAUUGGUUUCAGTT against Fbxo45,inactive: 1.24
10,GCUAUGUGGACGUGACCUATT against Chrnb4,inactive: -1.95
11,GGACCUACGUGUAUGUGCUTT against Nudt3,inactive: -0.364
12,CCAAGAGAUGCUAGCUAAUTT against LOC434225,inactive: 0.44
13,GGAUGACUAUUUCAGAAACTT against Spock1,inactive: 0.26
14,GGCUAGAAGAUAAAGAUGATT against Tmpo,inactive: -0.823
15,GGUGAUGCCUGUGAAGACATT against Il3ra,inactive: 0.406
16,GGAUUUGUUUUCACCAAGATT against Dmd,inactive: -1.14
17,CCCGAUUACUGGAGUUAAATT against Gm295,inactive: 0.0418
18,GGAAAAACAUCUCUUGCUUTT against Calcb,inactive: -0.641
19,GCUUAUAGAGGAGAACCGUTT against Thrb,inactive: -0.457
20,GGCGACAAGCAUUAUCAUCTT against Ablim1,inactive: -0.0334
21,GGAUACUUCUCCAUUUUCUTT against C1r,inactive: -0.36
22,GGACCAGCUCAGUCAAACATT against Slc39a4,inactive: -0.888
23,CGGAUUUUGAAGUACACCGTT against Alg8,inactive: -0.197
24,GCAAUGGAACUAUUAUUCATT against Cd28,inactive: -0.649
25,GGUUUGAUCCUCCACAUUCTT against 8430423A01Rik,inactive: -1.97
26,GGCUUCUGAUACAUAUAUCTT against G6pc2,inactive: 1.49

row,Sequence,z-score
1,CACGAUGUGGAGCAUGUGCTT against Pfdn5,inactive: 0.128
2,GGCUAUGAGAAUCACAUAATT against Tpo,inactive: -0.984
3,GGUCUUUUUGAAUAGAGUATT against BC038479,inactive: -0.691
4,GGAAUUUGAUUCUCUGCCUTT against 6820429M01,inactive: 0.0636
5,GCAUGUUUAGAACUAGCUCTT against Zfp87,inactive: -0.922
6,GGUCAACGUAAAUUGUUCATT against 4833424O15Rik,inactive: -1.28
7,GGGACAAUUAGAAAGACAUTT against Mtif2,inactive: -0.55
8,GCUGGGACCUCAGAAAGUUTT against D630047F21Rik,inactive: 0.365
9,CCUCCUGGAAGGGAUCAUGTT against BC025600,inactive: -2.37
10,GCUUCAUAACACAAACGGATT against 4930500C15Rik,inactive: -0.366
11,GGAAAAGGUGGAAAAGAUATT against AA536743,inactive: 0.265
12,CCAGUGAAAAAAAUGCCAUTT against Olfr344,inactive: 1.08
13,CGGUUUACGCCACAAAAGUTT against Rprm,inactive: -0.0947
14,CCAUUCGAGAUGAGAAGAATT against Gcc1,inactive: -1.26
15,GCUCUAUAUCCAGGAAACUTT against Krtap6-2,inactive: -0.626
16,GCACUUUGCACACUUAUUATT against 4932408B21Rik,inactive: 0.409
17,GGCAGUACCUUACAUUUAATT against Galnt7,inactive: 0.777
18,GGGUGUAUUCUGCUUUGUATT against 2600013N14Rik,inactive: -1.3
19,GGUCAAAUGGUGAAAAAGUTT against Stxbp5l,inactive: -1.01
20,GGACUGUGACCUCAAAAAGTT against Gsbs,inactive: 1
21,CCGCCCGCUCAACACUAAUTT against Zfp36l3,inactive: 1.79
22,GGUUGACUGAAGUAAUAGCTT against Sdccag1,inactive: 0.267
23,GGCGGUCAAGGGAAAAACATT against Tcf7,inactive: 0.0331
24,CCAAUAUGCUCAGUAUUACTT against Eya4,inactive: 0.581
25,GCUGCAUUUUUUGGCAGAGTT against 2010308M01Rik,inactive: -0.103
26,GGAGAGGAGAGUCUUGGAATT against 3110082I17Rik,inactive: -0.715
